Results are given in words; binding and its absence hold for the method and conditions named. In cells and extracts the contact can be indirect. These calls come from enrichment with a bait or labelling near it, and not all partners need be listed.
What was measured:
Assay in all cases: affinity purification with mass spectrometry; GST-fusion SH3 domain (about 10 μg on 40 μl Glutathione Sepharose 4B) incubated 4 h at 4°C with HeLa lysate pre-cleared on GST beads; 20 mM Tris pH 7.5, 150 mM NaCl, 5 mM EDTA, 5% glycerol, 0.5% Triton X-100 (washes 0.1%); SDS-PAGE, in-gel trypsin digestion, LC-MS/MS; hits also found with GST alone removed; only the target purified
[1] = biological target: GST-fusion SH3B domain of Ruk/CIN85 (UniProt Q96B97)
[2] = biological target: GST-fusion SH3A domain of Ruk/CIN85 (UniProt Q96B97)
[3] = biological target: GST-fusion SH3C domain of Ruk/CIN85 (UniProt Q96B97)

Sequences of proteins named here, by UniProt entry; tags and fusion partners are left off. A change or cut given only in a name is not applied to a line headed by its entry.
UniProt Q96B97: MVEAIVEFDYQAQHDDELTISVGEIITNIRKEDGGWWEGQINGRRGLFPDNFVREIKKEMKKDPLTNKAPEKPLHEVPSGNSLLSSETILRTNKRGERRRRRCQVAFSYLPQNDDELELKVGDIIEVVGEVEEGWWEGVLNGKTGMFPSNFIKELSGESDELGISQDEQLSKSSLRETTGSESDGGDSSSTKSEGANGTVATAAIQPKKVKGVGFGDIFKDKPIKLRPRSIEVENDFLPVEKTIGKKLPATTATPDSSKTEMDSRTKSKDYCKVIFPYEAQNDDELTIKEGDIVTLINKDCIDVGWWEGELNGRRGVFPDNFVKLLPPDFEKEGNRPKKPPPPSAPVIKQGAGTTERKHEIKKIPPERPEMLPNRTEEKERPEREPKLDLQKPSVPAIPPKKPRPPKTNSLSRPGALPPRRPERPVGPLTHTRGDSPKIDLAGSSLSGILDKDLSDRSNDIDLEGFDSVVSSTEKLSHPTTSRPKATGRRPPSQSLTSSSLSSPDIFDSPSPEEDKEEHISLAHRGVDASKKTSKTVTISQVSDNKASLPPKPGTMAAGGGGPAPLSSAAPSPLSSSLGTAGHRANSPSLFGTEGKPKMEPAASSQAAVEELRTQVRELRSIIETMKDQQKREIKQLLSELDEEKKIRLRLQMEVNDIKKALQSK
UniProt Q8NC56: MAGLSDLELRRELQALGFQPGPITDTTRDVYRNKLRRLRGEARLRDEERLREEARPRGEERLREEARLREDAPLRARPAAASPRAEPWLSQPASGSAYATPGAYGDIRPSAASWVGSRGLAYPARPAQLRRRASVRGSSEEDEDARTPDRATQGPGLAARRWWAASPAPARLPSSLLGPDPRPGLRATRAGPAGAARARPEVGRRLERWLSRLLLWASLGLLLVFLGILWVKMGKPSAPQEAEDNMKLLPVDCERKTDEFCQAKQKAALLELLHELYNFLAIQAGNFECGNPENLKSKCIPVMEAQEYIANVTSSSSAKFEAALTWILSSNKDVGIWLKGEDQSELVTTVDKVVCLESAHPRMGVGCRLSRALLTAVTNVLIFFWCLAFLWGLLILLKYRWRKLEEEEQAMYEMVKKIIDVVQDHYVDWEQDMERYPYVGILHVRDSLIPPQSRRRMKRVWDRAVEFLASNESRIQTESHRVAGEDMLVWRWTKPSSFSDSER
UniProt Q14244: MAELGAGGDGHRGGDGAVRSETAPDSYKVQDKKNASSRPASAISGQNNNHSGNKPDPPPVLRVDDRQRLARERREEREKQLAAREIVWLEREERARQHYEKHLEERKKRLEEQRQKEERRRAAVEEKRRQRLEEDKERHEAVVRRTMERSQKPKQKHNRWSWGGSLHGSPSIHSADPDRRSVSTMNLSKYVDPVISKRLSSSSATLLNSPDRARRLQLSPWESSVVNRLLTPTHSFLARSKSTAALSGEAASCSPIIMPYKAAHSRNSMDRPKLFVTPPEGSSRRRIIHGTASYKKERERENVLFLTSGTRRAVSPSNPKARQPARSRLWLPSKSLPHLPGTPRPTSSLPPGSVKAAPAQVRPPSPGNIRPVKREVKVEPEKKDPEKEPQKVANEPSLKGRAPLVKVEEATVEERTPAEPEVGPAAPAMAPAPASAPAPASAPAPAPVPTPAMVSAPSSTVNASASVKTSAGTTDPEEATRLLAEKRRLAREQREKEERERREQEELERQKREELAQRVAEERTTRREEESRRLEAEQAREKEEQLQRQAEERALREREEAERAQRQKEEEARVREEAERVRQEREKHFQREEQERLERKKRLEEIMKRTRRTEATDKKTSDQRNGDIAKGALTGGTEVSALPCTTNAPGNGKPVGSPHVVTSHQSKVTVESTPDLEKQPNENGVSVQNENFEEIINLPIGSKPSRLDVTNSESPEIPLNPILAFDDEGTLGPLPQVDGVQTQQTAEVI
UniProt Q86W92: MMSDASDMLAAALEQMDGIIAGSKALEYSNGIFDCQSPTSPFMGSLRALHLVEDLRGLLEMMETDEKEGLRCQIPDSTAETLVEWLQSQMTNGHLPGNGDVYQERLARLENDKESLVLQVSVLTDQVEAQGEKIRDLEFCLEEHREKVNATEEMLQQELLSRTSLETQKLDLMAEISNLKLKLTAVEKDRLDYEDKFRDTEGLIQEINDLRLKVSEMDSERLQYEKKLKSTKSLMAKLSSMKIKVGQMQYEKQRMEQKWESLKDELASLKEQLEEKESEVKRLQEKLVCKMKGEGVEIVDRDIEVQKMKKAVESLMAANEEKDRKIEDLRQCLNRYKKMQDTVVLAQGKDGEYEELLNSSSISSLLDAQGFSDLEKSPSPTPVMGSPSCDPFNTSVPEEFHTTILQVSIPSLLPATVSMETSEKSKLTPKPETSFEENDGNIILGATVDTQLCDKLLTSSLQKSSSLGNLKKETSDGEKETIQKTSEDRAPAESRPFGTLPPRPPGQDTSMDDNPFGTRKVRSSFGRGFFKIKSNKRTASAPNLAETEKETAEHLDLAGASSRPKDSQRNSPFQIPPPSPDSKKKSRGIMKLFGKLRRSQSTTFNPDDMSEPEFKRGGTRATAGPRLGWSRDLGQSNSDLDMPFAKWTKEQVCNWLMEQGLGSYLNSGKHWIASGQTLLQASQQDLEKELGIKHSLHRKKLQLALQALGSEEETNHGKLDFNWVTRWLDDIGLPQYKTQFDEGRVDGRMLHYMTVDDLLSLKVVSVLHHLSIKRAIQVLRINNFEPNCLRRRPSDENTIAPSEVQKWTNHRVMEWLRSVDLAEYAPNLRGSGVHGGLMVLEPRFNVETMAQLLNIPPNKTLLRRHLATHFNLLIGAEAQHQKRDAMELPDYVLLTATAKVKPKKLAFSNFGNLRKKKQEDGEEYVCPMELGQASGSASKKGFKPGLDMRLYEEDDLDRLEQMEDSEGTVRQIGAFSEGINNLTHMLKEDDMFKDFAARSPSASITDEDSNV

binding [1] | binding [2] | binding [3] | Molecule
binds | – | – | hLEM2 (from UniProt Q8NC56 1-503)
binds | – | – | E-MAP-115 (from UniProt Q14244 1-749)
binds | – | – | Liprin β1 (from UniProt Q86W92 1-1011)
binds | – | – | KCTD10 (protein, UniProt Q9H3F6 1-313) MEEMSGESVVSSAVPAAATRTTSFKGTSPSSKYVKLNVGGALYYTTMQTLTKQDTMLKAMFSGRMEVLTDSEGWILIDRCGKHFGTILNYLRDGAVPLPESRREIEELLAEAKYYLVQGLVEECQAALQNKDTYEPFCKVPVITSSKEEQKLIATSNKPAVKLLYNRSNNKYSYTSNSDDNMLKNIELFDKLSLRFNGRVLFIKDVIGDEICCWSFYGQGRKIAEVCCTSIVYATEKKQTKVEFPEARIYEETLNILLYEAQDGRGPDNALLEATGGAAGRSHHLDEDEERERIERVRRIHIKRPDDRAHLHQ
– | binds | binds | Synaptopodin (protein, UniProt Q8N3V7 1-929) MLGPHLPPPPLAPSEGRPTPCAFQIPDGSYRCLALEAEESSGEEGLQGEVGPTDLEEDEGVSRSGDDSACRVTQGTPQLPKALGIQPPSCSREEQGASQHDDRASQDWDVVKAGQMMTASPSPGPGPRVAQKPALGRSTSLTEKDLKEAKARSQQIAAQLTTPPSSNSRGVQLFNRRRQRVNEFTLESHGQRGQKPSQESLRVLPSSLPGHAPGLSLSSTSLPEPGPPRHPSPQSPDRGVPGHSMEGYSEEASLLRHLEKVASEEEEVPLVVYLKENAALLTANGLHLSQNREAQQSSPAPPPAEVHSPAADVNQNLASPSATLTTPTSNSSHNPPATDVNQNPPATVVPQSLPLSSIQQNSSEAQLPSNGTGPASKPSTLCADGQPQAPAEEVRCSTLLIDKVSTPATTTSTFSREATLIPSSRPPASDFMSSSLLIDIQPNTLVVSADQEMSGRAAATTPTKVYSEVHFTLAKPPSVVNRTARPFGIQAPGGTSQMERSPMLERRHFGEKAPAPQPPSLPDRSPRPQRHIMSRSPMVERRMMGQRSPASERRPLGNFTAPPTYTETLSTAPLASWVRSPPSYSVLYPSSDPKSSHLKGQAVPASKTGILEESMARRGSRKSMFTFVEKPKVTPNPDLLDLVQTADEKRRQRDQGEVGVEEEPFALGAEASNFQQEPAPRDRASPAAAEEVVPEWASCLKSPRIQAKPKPKPNQNLSEASGKGAELYARRQSRMEKYVIESSSHTPELARCPSPTMSLPSSWKYPTNAPGAFRVASRSPARTPPASLYHGYLPENGVLRPEPTKQPPYQLRPSLFVLSPIKEPAKVSPRAASPAKPSSLDLVPNLPKGALPPSPALPRPSRSSPGLYTSPGQDSLQPTAVSPPYGGDISPVSPSRAWSPRAKQAPRPSFSTRNAGIEAQVWKPSFCFK

Further lines, the molecule ahead of its results:

Molecule | binding [1] | binding [2] | binding [3]
Septin 2 (protein, UniProt Q15019 1-361) MSKQQPTQFINPETPGYVGFANLPNQVHRKSVKKGFEFTLMVVGESGLGKSTLINSLFLTDLYPERVIPGAAEKIERTVQIEASTVEIEERGVKLRLTVVDTPGYGDAINCRDCFKTIISYIDEQFERYLHDESGLNRRHIIDNRVHCCFYFISPFGHGLKPLDVAFMKAIHNKVNIVPVIAKADTLTLKERERLKKRILDEIEEHNIKIYHLPDAESDEDEDFKEQTRLLKASIPFSVVGSNQLIEAKGKKVRGRLYPWGVVEVENPEHNDFLKLRTMLITHMQDLQEVTQDLHYENFRSERLKRGGRKVENEDMNKDQILLEKEAELRRMQEMIARMQAQMQMQMQGGDGDGGALGHHV | – | binds | binds
PHACTR4 (protein, UniProt Q8IZ21 1-702) MEDPFEEADQPTTEPGMVLDSVEAGDTTPPTKRKSKFSGFGKIFKPWKWRKKKSSDKFKETSEVLERKISMRKPREELVKRGVLLEDPEQGGEDPGKPSDAMLKNGHTTPIGNARSSSPVQVEEEPVRLASLRKAIPEEDLKKRLGSTGSQPNSEAESVPENVPKPPLLPPKRPLSSSHEASEGQAKDATSSGGTARFIISTSITTAPAATTAATSLAKTVNLSVTPSPAPRTLPAAPASTNTTATPSLTHMVPAKQPPIPPPKPAHRNSNPVIAELSQAINSGTLLSKPSPPLPPKRGIPSTSVPTLESAAAITTKTPSDEREKSTCSMGSELLPMISPRSPSPPLPTHIPPEPPRTPPFPAKTFQVVPEIEFPPSLDLHQEIPQQEDQKKEVPKRILDQNFGEPHIPSRLPPLPLHIRIQQALTSPLPMTPILEGSHRAHSLLFENSDSFSEDSSTLGRTRSLPITIEMLKVPDDEEEEEQTCPSTFSEEMTPTSVIPKLPQCLREEEEKESDSDSEGPIQYRDEEDEDESYQSALANKVKRKDTLAMKLNHRPSEPELNLNSWPCKSKEEWNEIRHQIGNTLIRRLSQRPTPEELEQRNILQPKNEADRQAEKREIKRRLTRKLSQRPTVAELLARKILRFNEYVEVTDAQDYDRRADKPWTKLTPADKAAIRKELNEFKSSEMEVHEESKHFTRYHRP | – | binds | binds
WIRE (protein, UniProt Q8TF74 1-440) MPIPPPPPPPPGPPPPPTFHQANTEQPKLSRDEQRGRGALLQDICKGTKLKKVTNINDRSAPILEKPKGSSGGYGSGGAALQPKGGLFQGGVLKLRPVGAKDGSENLAGKPALQIPSSRAAAPRPPVSAASGRPQDDTDSSRASLPELPRMQRPSLPDLSRPNTTSSTGMKHSSSAPPPPPPGRRANAPPTPLPMHSSKAPAYNREKPLPPTPGQRLHPGREGPPAPPPVKPPPSPVNIRTGPSGQSLAPPPPPYRQPPGVPNGPSSPTNESAPELPQRHNSLHRKTPGPVRGLAPPPPTSASPSLLSNRPPPPARDPPSRGAAPPPPPPVIRNGARDAPPPPPPYRMHGSEPPSRGKPPPPPSRTPAGPPPPPPPPLRNGHRDSITTVRSFLDDFESKYSFHPVEDFPAPEEYKHFQRIYPSKTNRAARGAPPLPPILR | – | binds | binds
SHIP2 (protein, UniProt O15357 1-1258) MASACGAPGPGGALGSQAPSWYHRDLSRAAAEELLARAGRDGSFLVRDSESVAGAFALCVLYQKHVHTYRILPDGEDFLAVQTSQGVPVRRFQTLGELIGLYAQPNQGLVCALLLPVEGEREPDPPDDRDASDGEDEKPPLPPRSGSTSISAPTGPSSPLPAPETPTAPAAESAPNGLSTVSHDYLKGSYGLDLEAVRGGASHLPHLTRTLATSCRRLHSEVDKVLSGLEILSKVFDQQSSPMVTRLLQQQNLPQTGEQELESLVLKLSVLKDFLSGIQKKALKALQDMSSTAPPAPQPSTRKAKTIPVQAFEVKLDVTLGDLTKIGKSQKFTLSVDVEGGRLVLLRRQRDSQEDWTTFTHDRIRQLIKSQRVQNKLGVVFEKEKDRTQRKDFIFVSARKREAFCQLLQLMKNKHSKQDEPDMISVFIGTWNMGSVPPPKNVTSWFTSKGLGKTLDEVTVTIPHDIYVFGTQENSVGDREWLDLLRGGLKELTDLDYRPIAMQSLWNIKVAVLVKPEHENRISHVSTSSVKTGIANTLGNKGAVGVSFMFNGTSFGFVNCHLTSGNEKTARRNQNYLDILRLLSLGDRQLNAFDISLRFTHLFWFGDLNYRLDMDIQEILNYISRKEFEPLLRVDQLNLEREKHKVFLRFSEEEISFPPTYRYERGSRDTYAWHKQKPTGVRTNVPSWCDRILWKSYPETHIICNSYGCTDDIVTSDHSPVFGTFEVGVTSQFISKKGLSKTSDQAYIEFESIEAIVKTASRTKFFIEFYSTCLEEYKKSFENDAQSSDNINFLKVQWSSRQLPTLKPILADIEYLQDQHLLLTVKSMDGYESYGECVVALKSMIGSTAQQFLTFLSHRGEETGNIRGSMKVRVPTERLGTRERLYEWISIDKDEAGAKSKAPSVSRGSQEPRSGSRKPAFTEASCPLSRLFEEPEKPPPTGRPPAPPRAAPREEPLTPRLKPEGAPEPEGVAAPPPKNSFNNPAYYVLEGVPHQLLPPEPPSPARAPVPSATKNKVAITVPAPQLGHHRHPRVGEGSSSDEESGGTLPPPDFPPPPLPDSAIFLPPSLDPLPGPVVRGRGGAEARGPPPPKAHPRPPLPPGPSPASTFLGEVASGDDRSCSVLQMAKTLSEVDYAPAGPARSALLPGPLELQPPRGLPSDYGRPLSFPPPRIRESIQEDLAEEAPCLQGGRASGLGEAGMSAWLRAIGLERYEEGLVHNGWDDLEFLSDITEEDLEEAGVQDPAHKRLLLDTLQLSK | – | binds | binds
Dynamin 1 (protein, UniProt Q05193 1-864) MGNRGMEDLIPLVNRLQDAFSAIGQNADLDLPQIAVVGGQSAGKSSVLENFVGRDFLPRGSGIVTRRPLVLQLVNATTEYAEFLHCKGKKFTDFEEVRLEIEAETDRVTGTNKGISPVPINLRVYSPHVLNLTLVDLPGMTKVPVGDQPPDIEFQIRDMLMQFVTKENCLILAVSPANSDLANSDALKVAKEVDPQGQRTIGVITKLDLMDEGTDARDVLENKLLPLRRGYIGVVNRSQKDIDGKKDITAALAAERKFFLSHPSYRHLADRMGTPYLQKVLNQQLTNHIRDTLPGLRNKLQSQLLSIEKEVEEYKNFRPDDPARKTKALLQMVQQFAVDFEKRIEGSGDQIDTYELSGGARINRIFHERFPFELVKMEFDEKELRREISYAIKNIHGIRTGLFTPDMAFETIVKKQVKKIREPCLKCVDMVISELISTVRQCTKKLQQYPRLREEMERIVTTHIREREGRTKEQVMLLIDIELAYMNTNHEDFIGFANAQQRSNQMNKKKTSGNQDEILVIRKGWLTINNIGIMKGGSKEYWFVLTAENLSWYKDDEEKEKKYMLSVDNLKLRDVEKGFMSSKHIFALFNTEQRNVYKDYRQLELACETQEEVDSWKASFLRAGVYPERVGDKEKASETEENGSDSFMHSMDPQLERQVETIRNLVDSYMAIVNKTVRDLMPKTIMHLMINNTKEFIFSELLANLYSCGDQNTLMEESAEQAQRRDEMLRMYHALKEALSIIGDINTTTVSTPMPPPVDDSWLQVQSVPAGRRSPTSSPTPQRRAPAVPPARPGSRGPAPGPPPAGSALGGAPPVPSRPGASPDPFGPPPQVPSRPNRAPPGVPSRSGQASPSRPESPRPPFDL | – | binds | binds
